Consider one substance from PMC7321701.

Test [1] concerns the target insulin-like growth factor-1 receptor (human (endogenous in MCF7)) (UniProt P08069). The experiment in a line: co-IP; total (500 ug), cytoplasmic (100 ug) and nuclear (100 ug) extracts diluted 1:2 with 1% Triton X-100, 150 mM NaCl, 20 mM Tris pH 7.5; immunoprecipitated with anti-INSR beta-subunit or anti-IGF1R beta-subunit overnight at 4°C, protein A/G-agarose 2 h; blotted with anti-p53; IgG as control.

Test [2] addresses insulin receptor (human (endogenous in MCF7)) (UniProt P06213). Described as above.

Results are given in words; binding and its absence hold for the method and conditions named. Binding seen in cells or lysates may run through a third protein. Some results given as binding are weak or reduced against the parent protein; the word gives no strength.

As for “Tumor suppressor p53 (from UniProt P04637 1-393)”, the binding entry in test [1] and in test [2] was “binds” throughout.
